{
  "source": "paper doi:10.1101/2024.08.01.24310552",
  "binders": {"B1": {"name": "FLAG-tagged NXF3 (wildtype) (protein, UniProt Q9H4D5-1 1-531)", "chain": "MSLPSGHTTGHTDQVVQRRARCWDIYQRRFSSRSEPVNPGMHSSSHQQQDGDAAMHGAHMDSPVRYTPYTISPYNRKGSFRKQDQTHVNMEREQKPPERRMEGNMPDGTLGSWFKITVPFGIKYNEKWLLNLIQNECSVPFVPVEFHYENMHASFFVENASIAYALKNVSGKIWDEDNEKISIFVNPAGIPHFVHRELKSEKVEQIKLAMNQQCDVSQEALDIQRLPFYPDMVNRDTKMASNPRKCMAASLDVHEENIPTVMSAGEMDKWKGIEPGEKCADRSPVCTTFSDTSSNINSILELFPKLLCLDGQQSPRATLCGTEAHKRLPTCKGSFFGSEMLKNLVLQFLQQYYLIYDSGDRQGLLSAYHDEACFSLSIPFNPEDSAPSSFCKFFKDSRNIKILKDPYLRGELLKHTKLDIVDSLSALPKTQHDLSSFLVDMWYQTEWMLCFSVNGVFKEVEGQSQGSVLAFTRTFIATPGSSSSLCIVNDKLFVRDTSHQGTQSALFTLVPTAFSSSVPAFSQEQQKMLPS"}, "B2": {"name": "FLAG-tagged NXF2 (wildtype) (protein, UniProt Q9GZY0 1-626)", "chain": "MCSTLKKCGTYRTEVAECHDHGSTFQGRKKGGSSFRDNFDKRSCHYEHGGYERPPSHCQENDGSVEMRDVHKDQQLRHTPYSIRCERRMKWHSEDEIRITTWRNRKPPERKMSQNTQDGYTRNWFKVTIPYGIKYDKAWLMNSIQSHCSDRFTPVDFHYVRNRACFFVQDASAASALKDVSYKIYDDENQKICIFVNHSTAPYSVKNKLKPGQMEMLKLTMNKRYNVSQQALDLQNLRFDPDLMGRDIDIILNRRNCMAATLKIIERNFPELLSLNLCNNKLYQLDGLSDITEKAPKVKTLNLSKNKLESAWELGKVKGLKLEELWLEGNPLCSTFSDQSAYVSAIRDCFPKLLRLDGRELSAPVIVDIDSSETMKPCKENFTGSETLKHLVLQFLQQYYSIYDSGDRQGLLGAYHDEACFSLAIPFDPKDSAPSSLCKYFEDSRNMKTLKDPYLKGELLRRTKRDIVDSLSALPKTQHDLSSILVDVWCQTERMLCFSVNGVFKEVEGQSQGSVLAFTRTFIATPGSSSSLCIVNDELFVRDASPQETQSAFSIPVSTLSSSSEPSLSQEQQEMVQAFSAQSGMKLEWSQKCLQDNEWNYTRAGQAFTMLQTEGKIPAEAFKQIS"}, "B3": {"name": "NXF3 stop-gain variant c.826G>T p.(Gly276*), truncated protein (domain or fragment, UniProt Q9H4D5-1 1-275)", "chain": "MSLPSGHTTGHTDQVVQRRARCWDIYQRRFSSRSEPVNPGMHSSSHQQQDGDAAMHGAHMDSPVRYTPYTISPYNRKGSFRKQDQTHVNMEREQKPPERRMEGNMPDGTLGSWFKITVPFGIKYNEKWLLNLIQNECSVPFVPVEFHYENMHASFFVENASIAYALKNVSGKIWDEDNEKISIFVNPAGIPHFVHRELKSEKVEQIKLAMNQQCDVSQEALDIQRLPFYPDMVNRDTKMASNPRKCMAASLDVHEENIPTVMSAGEMDKWKGIEP"}},
  "key": {"[1]": {"molecular_target": "C-terminally truncated NXT2, lacking the last six amino acids (human)", "assay": "co-IP"}, "[2]": {"molecular_target": "HA-tagged NXT2 (wildtype, long isoform NM_018698.5) (human)", "assay": "co-IP"}},
  "note": "No constants are given. Whether binding was seen depends on the method and setting. In cells and extracts the contact can be indirect. Binding calls can cover weak binding; strength is not graded here. Sequences can lack the tags named with a protein.",
  "data": [
    {"binder": "B1", "values": [
      {"measurement": "binding", "setting": "[1]", "result": "binds"},
      {"measurement": "binding", "setting": "[2]", "result": "binds"}
    ]},
    {"binder": "B2", "values": [
      {"measurement": "binding", "setting": "[1]", "result": "binds"},
      {"measurement": "binding", "setting": "[2]", "result": "binds"}
    ]},
    {"binder": "B3", "values": [
      {"measurement": "binding", "setting": "[2]", "result": "no binding"}
    ]}
  ]
}
